# Reference: PubChem BioAssay AID1347075 (National Center for Advancing Translational Sciences (NCATS), 2019)
# The campaign covered roughly 400,000 compounds. About 5,500 (1.4%) were called active. This list was built around the results that the source calls inconclusive (neither active nor inactive); the mix of calls is not that of the screen. Calls come from the whole dose curve; as a rule, active = well fitted cell-killing curve with a large enough effect; inconclusive = small, poorly fitted or top-dose-only effect, or effect the other way; inactive = flat fitted curve, though single readings scatter. Where the call is inconclusive, the potency comes from a doubtful curve fit.
# Experiment: qHTS assay for MDR1-selective chemotherapeutics: Primary screen using the parental adenocarcinoma cell KB-3-1; note: nearly all actives have a fitted effect of over 60% in size
# Conditions: KB-3-1 viability, CellTiter-Glo ATP luminescence, 72 h; activity change, negative = cytotoxic: at 46.1 µM (top of the series)
# Procedure, shortened: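 Here the drug-naive KB-3-1 line serves as comparator for MDR sub-line selectivity; cells received compound titrations, 72 h at 37 °C, then CellTiter-Glo readout.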
# % is set by controls: 0 for no effect and ±100 for the full control effect; potency is the fitted concentration of half-maximal effect.
SMILES,Potency,"activity change, negative = cytotoxic"
O=C(N/N=C/c1ccc(N2CCCCC2)o1)c1ccccc1,"inconclusive: 23.1 µM [cytotoxic, single point]",–
COc1ccc2c(c1OC)C(=O)N1C(C(=O)O)Cc3c([nH]c4ccccc34)C21 (stereo not drawn),"inconclusive: 2.06 µM [rising, partial curve, poor fit]",–
CCC(O)(c1ccc(OC)cc1)C(CN1CCOCC1)c1ccccc1 (stereo not drawn),–,inactive: -0.137%
Cc1cnc(C(=O)OCC(=O)NCc2ccc3c(c2)OCO3)cn1,–,inactive: -1.28%
COC(=O)c1ccccc1NC(=O)c1ccc(NS(C)(=O)=O)cc1,"inconclusive: 29.1 µM [rising, single point]",–
Cc1ccc(S(=O)(=O)NCC(=O)N/N=C/c2ccc(Cl)cc2Cl)cc1,–,inactive: -0.964%
CSC(=S)NN=C(C)c1cccc(C)n1,"inconclusive: 29.1 µM [cytotoxic, single point]",–
O=C(Nc1nc(-c2ccccn2)cs1)c1ccccc1-n1cnnn1,"inconclusive: 25.9 µM [cytotoxic, single point]",–
Cc1ccc(C2=NN(S(=O)(=O)c3ccccc3)C(c3ccco3)C2)cc1 (stereo not drawn),"inconclusive: 23.1 µM [cytotoxic, single point]",–
O=C(Cn1nc(CNc2ccc(Br)cc2)[n+]2c1CCCCC2)c1ccc([N+](=O)[O-])cc1,active: 13 µM,–
COc1ccc(/C=N/Nc2nncc3ccccc23)cc1,"inconclusive: 29.1 µM [cytotoxic, single point]",–
COc1cc(C(=O)NC(C)C2CC3CCC2C3)ccc1OC(F)F (stereo not drawn),–,inactive: -0.164%
CS/C(=C\[N+](=O)[O-])Nc1ccc(OC(F)(F)F)cc1,"inconclusive: 13 µM [cytotoxic, single point]",–
CSc1n[nH]c(-c2ccc(C(F)(F)F)cc2)n1,–,inactive: -4.06%
C/C(=N\NC(=O)c1cccc2ccccc12)c1ccccn1,"inconclusive: 4.11 µM [cytotoxic, full curve]",–
O=C(c1ccc(-c2nc3ccccc3s2)s1)N1CCOCC1,"inconclusive: 18.4 µM [cytotoxic, single point]",–
Nc1cc(S(=O)(=O)Nc2ccc(Br)cc2)ccc1Cl,–,inactive: -14.9%
Cc1ccc(S(=O)(=O)NC2(C(F)(F)F)NC(=O)N(c3ccc(F)cc3)C2=O)cc1 (stereo not drawn),"inconclusive: 18.4 µM [rising, single point]",–
O=C1NC(c2ccccc2)=C(c2nc3ccccc3s2)C(c2ccc(F)cc2)N1 (stereo not drawn),"inconclusive: 20.6 µM [cytotoxic, partial curve, poor fit]",–
CCOCCc1nn2c(=O)cc(COC(=O)c3ccccc3NC(=O)c3ccccc3F)nc2s1,–,inactive: 1.53%
COc1ccccc1C1(CCNS(=O)(=O)c2ccc(C)cc2)CCOC(C(C)C)C1 (stereo not drawn),"inconclusive: 29.1 µM [cytotoxic, single point]",–
NC(=O)CCC(NC(=S)Nc1ccccc1)C(=O)O (stereo not drawn),"inconclusive: 0.0259 µM [rising, full curve]",–
Cc1ccc(-c2cn(S(=O)(=O)c3cccc([N+](=O)[O-])c3)nc2N)cc1,–,inconclusive: -11.8%

SMILES,Potency,"activity change, negative = cytotoxic"
CN(C)c1cc[n+](CC(=O)c2ccc(-c3ccccc3)cc2)cc1,"inconclusive: 1.64 µM [cytotoxic, partial curve, poor fit]",–
CCOCC(=O)NC1CCc2cc(OC(=O)COCC)c(OC)c(OC)c2-c2ccc(SC)c(=O)cc21 (stereo not drawn),active: 0.0092 µM,–
CCOc1ccc(C(=O)c2cn(CC(=O)Nc3ccc(OC)cc3)c3cc4c(cc3c2=O)OCO4)cc1,–,inactive: 24.6%
CC(O)CNc1nc2c(c(=O)n(C)c(=O)n2C)n1Cc1cccc(Br)c1 (stereo not drawn),"inconclusive: 20.6 µM [cytotoxic, partial curve, poor fit]",–
Cc1ccnc(NS(=O)(=O)c2ccc(NC(=O)C3CC=CCC3C(=O)O)cc2)n1 (stereo not drawn),–,inactive: 3.27%
CCCN(CCC)CCNC(=O)C1CCN(Cc2nc(-c3ccc(Cl)cc3)oc2C)CC1,active: 23.1 µM,–
Cc1onc(-c2ccccc2)c1C(=O)Nc1ccc(S(=O)(=O)N2CCCCC2)cc1,"inconclusive: 25.9 µM [cytotoxic, single point]",–
C[C@@H]1CN([C@@H](C)CO)C(=O)CCCn2nncc2CO[C@@H]1CN(C)C(=O)Nc1ccc(C(F)(F)F)cc1,"inconclusive: 29.1 µM [rising, single point]",–
COc1ccc(-c2cc(C(=O)NC(Cc3cc4ccccc4[nH]3)C(=O)O)c(C)o2)cc1OC (stereo not drawn),"inconclusive: 4.11 µM [rising, full curve]",–
CC(=O)c1ccc(OCC(O)CN2CCN(S(=O)(=O)c3c(C)c(C)cc(C)c3C)CC2)cc1 (stereo not drawn),–,inactive: 1.99%
CCCCn1nc(C(=O)Nc2cccc(C(=O)NC3CC3)c2)c2ccccc2c1=O,"inconclusive: 25.9 µM [cytotoxic, single point]",–
O=C(O)c1ccc(NC2=C/C(=N/S(=O)(=O)c3cccs3)c3ccccc3C2=O)cc1,"inconclusive: 18.4 µM [cytotoxic, single point]",–
COc1ccccc1N=C1NC(=O)/C(=C/c2ccc(N(C)C)cc2)S1,active: 10.3 µM,–
CS(=O)(=O)N(Cc1nc2sc3c(c2c(=O)[nH]1)CCCC3)C1CCCCC1,"inconclusive: 29.1 µM [cytotoxic, single point]",–
COC(=O)c1c(C)[nH]c(C(=O)C(C)OC(=O)C2=NNC(=O)CC2)c1C (stereo not drawn),"inconclusive: 3.66 µM [cytotoxic, full curve]",–
Cc1ccc(C(=O)Nc2ncc3c(Cl)cccc3n2)cc1,"inconclusive: 20.6 µM [cytotoxic, single point]",–
O=C(NC(=S)NCc1ccccc1)c1cccs1,"inconclusive: 29.1 µM [cytotoxic, single point]",–
COc1ccc(CCNC(=O)Cn2c(=O)cc(C(F)(F)F)c3c(C)nn(C)c32)cc1OC,–,inactive: -3.45%
Oc1ccc2ccccc2c1CN1CCCCC1,"inconclusive: 0.651 µM [rising, full curve, poor fit]",–
Cc1ccc(NC(=O)c2cc(NC(=O)c3ccco3)ccc2N2CCCCC2)cc1,–,inactive: -19.5%
COc1ccc(CN(C)S(=O)(=O)c2nnc(NC(=O)C(C)C)s2)cc1OC,"inconclusive: 16.4 µM [cytotoxic, single point]",–
Cn1nnnc1Sc1ncnc2scc(-c3cccc(Br)c3)c12,active: 7.31 µM,–
COc1cc(/C=C(\C#N)C(=O)NCCc2ccccc2)cc(OC)c1O,"inconclusive: 20.6 µM [cytotoxic, single point]",–

# Taken from above.
# Potency, `CSC(=S)NN=C(C)c1cccc(C)n1` is entered as inconclusive: 29.1 µM [cytotoxic, single point]
# Potency, `O=C(c1ccc(-c2nc3ccccc3s2)s1)N1CCOCC1` is entered as inconclusive: 18.4 µM [cytotoxic, single point]
# activity change, negative = cytotoxic, `Cc1ccnc(NS(=O)(=O)c2ccc(NC(=O)C3CC=CCC3C(=O)O)cc2)n1` (stereo not drawn) is entered as inactive: 3.27%
# Potency, `Cc1ccc(C(=O)Nc2ncc3c(Cl)cccc3n2)cc1` is entered as inconclusive: 20.6 µM [cytotoxic, single point]

# Further structures follow.

SMILES,Potency,"activity change, negative = cytotoxic"
Cc1ccc(Cl)cc1NC(=O)c1sc2nc(-c3ccccc3)cn2c1C,–,inactive: 4.5%
CN(C)c1ccc(/C=N\NC(=O)c2ccc(Cn3cc(Cl)cn3)cc2)cc1,"inconclusive: 29.1 µM [cytotoxic, single point]",–
CCOC(=O)c1ccc(NC(=O)c2nc[nH]c2C(=O)NCCCCCNC(=O)OC(C)(C)C)cc1,"inconclusive: 29.1 µM [cytotoxic, single point]",–
O=C(O)c1ccccc1O,–,inactive: 0%
Cc1ccc(N(CC(=O)NC2CCCCC2)C(=O)c2ccc(C)s2)cc1,"inconclusive: 23.1 µM [rising, single point]",–
O=[N+]([O-])c1ccc(Br)c(CN2CCN(c3ncc(Cc4ccccc4)cn3)CC2)c1,"inconclusive: 16.4 µM [cytotoxic, partial curve, poor fit]",–
Cc1ccc(C(=O)Nc2sc(Cc3ccc4c(c3)OCO4)c(C)c2C(N)=O)cc1,"inconclusive: 18.4 µM [cytotoxic, single point]",–
CCN(CC)C(=O)NC1CC(=O)N(c2ccc(OC)cc2)C1 (stereo not drawn),"inconclusive: 29.1 µM [rising, partial curve, poor fit]",–
CCc1cc2c(=O)[nH]c(-c3ccccn3)nc2s1,active: 11.6 µM,–
CCN1CCN(C(c2ccc(C(F)(F)F)cc2)c2ccc3cccnc3c2O)CC1 (stereo not drawn),"inconclusive: 2.06 µM [cytotoxic, full curve]",–
O=C1C(Cl)=C(NS(=O)(=O)c2ccc([N+](=O)[O-])cc2)C(=O)c2ccccc21,"inconclusive: 29.1 µM [cytotoxic, single point]",–
O=C(C(c1ccccc1)c1ccccc1)N1CCC(c2nc(-c3ccccc3Cl)no2)CC1,"inconclusive: 29.1 µM [cytotoxic, single point]",–
CCOc1ccc(NC(=S)/C(=C(\[O-])c2ccc(C)c([N+](=O)[O-])c2)[n+]2ccccc2)cc1,–,inactive: -8.9%
Cn1c(N)c(C(=O)CCl)c(=O)n(Cc2ccccc2)c1=O,"inconclusive: 29.1 µM [cytotoxic, single point]",–
Cc1c(Cl)cccc1NC(=O)c1ccc2c(c1)nnn2C1CCCC1,"inconclusive: 29.1 µM [cytotoxic, single point]",–
C=CCNC(=O)CSc1nnc(-c2ccccc2Br)n1-c1cccc(C(F)(F)F)c1,"inconclusive: 18.4 µM [cytotoxic, single point]",–
Cc1ccc(OCCCCCCN2CCNCC2)c(Br)c1,–,inactive: -19.5%
Cc1cccc(C(=O)OCC(=O)Nc2c(C)n(C)n(-c3ccccc3)c2=O)c1,–,inactive: 4.42%
O=C(N/N=C/c1ccc2c(c1)OCO2)c1cc(-c2ccco2)nc2ccccc12,"inconclusive: 29.1 µM [cytotoxic, single point]",–
COCCCNC(=S)Nc1cc(C)c(C)cc1C,"inconclusive: 0.366 µM [rising, partial curve, poor fit]",–
CN(C)CCNc1ccc(-c2nn(C)c(=O)c3ccccc23)cc1[N+](=O)[O-],"inconclusive: 29.1 µM [cytotoxic, single point]",–
COc1cc2ncnc(Nc3cccc(Cl)c3)c2cc1OC,"inconclusive: 29.1 µM [cytotoxic, single point]",–
